Assay results from publication PMC4792956.
No constants are given. Whether binding was seen depends on the method and setting. Binding seen in cells or lysates may run through a third protein. Here binding means that the protein was enriched with, or labelled near, the bait; the list need not be complete. No binding means not detected with the bait. Tags and fused reporters may be left off the sequences shown.

Sequences of proteins named here, by UniProt entry; tags and fusion partners are left off.
UniProt Q9V3Z6: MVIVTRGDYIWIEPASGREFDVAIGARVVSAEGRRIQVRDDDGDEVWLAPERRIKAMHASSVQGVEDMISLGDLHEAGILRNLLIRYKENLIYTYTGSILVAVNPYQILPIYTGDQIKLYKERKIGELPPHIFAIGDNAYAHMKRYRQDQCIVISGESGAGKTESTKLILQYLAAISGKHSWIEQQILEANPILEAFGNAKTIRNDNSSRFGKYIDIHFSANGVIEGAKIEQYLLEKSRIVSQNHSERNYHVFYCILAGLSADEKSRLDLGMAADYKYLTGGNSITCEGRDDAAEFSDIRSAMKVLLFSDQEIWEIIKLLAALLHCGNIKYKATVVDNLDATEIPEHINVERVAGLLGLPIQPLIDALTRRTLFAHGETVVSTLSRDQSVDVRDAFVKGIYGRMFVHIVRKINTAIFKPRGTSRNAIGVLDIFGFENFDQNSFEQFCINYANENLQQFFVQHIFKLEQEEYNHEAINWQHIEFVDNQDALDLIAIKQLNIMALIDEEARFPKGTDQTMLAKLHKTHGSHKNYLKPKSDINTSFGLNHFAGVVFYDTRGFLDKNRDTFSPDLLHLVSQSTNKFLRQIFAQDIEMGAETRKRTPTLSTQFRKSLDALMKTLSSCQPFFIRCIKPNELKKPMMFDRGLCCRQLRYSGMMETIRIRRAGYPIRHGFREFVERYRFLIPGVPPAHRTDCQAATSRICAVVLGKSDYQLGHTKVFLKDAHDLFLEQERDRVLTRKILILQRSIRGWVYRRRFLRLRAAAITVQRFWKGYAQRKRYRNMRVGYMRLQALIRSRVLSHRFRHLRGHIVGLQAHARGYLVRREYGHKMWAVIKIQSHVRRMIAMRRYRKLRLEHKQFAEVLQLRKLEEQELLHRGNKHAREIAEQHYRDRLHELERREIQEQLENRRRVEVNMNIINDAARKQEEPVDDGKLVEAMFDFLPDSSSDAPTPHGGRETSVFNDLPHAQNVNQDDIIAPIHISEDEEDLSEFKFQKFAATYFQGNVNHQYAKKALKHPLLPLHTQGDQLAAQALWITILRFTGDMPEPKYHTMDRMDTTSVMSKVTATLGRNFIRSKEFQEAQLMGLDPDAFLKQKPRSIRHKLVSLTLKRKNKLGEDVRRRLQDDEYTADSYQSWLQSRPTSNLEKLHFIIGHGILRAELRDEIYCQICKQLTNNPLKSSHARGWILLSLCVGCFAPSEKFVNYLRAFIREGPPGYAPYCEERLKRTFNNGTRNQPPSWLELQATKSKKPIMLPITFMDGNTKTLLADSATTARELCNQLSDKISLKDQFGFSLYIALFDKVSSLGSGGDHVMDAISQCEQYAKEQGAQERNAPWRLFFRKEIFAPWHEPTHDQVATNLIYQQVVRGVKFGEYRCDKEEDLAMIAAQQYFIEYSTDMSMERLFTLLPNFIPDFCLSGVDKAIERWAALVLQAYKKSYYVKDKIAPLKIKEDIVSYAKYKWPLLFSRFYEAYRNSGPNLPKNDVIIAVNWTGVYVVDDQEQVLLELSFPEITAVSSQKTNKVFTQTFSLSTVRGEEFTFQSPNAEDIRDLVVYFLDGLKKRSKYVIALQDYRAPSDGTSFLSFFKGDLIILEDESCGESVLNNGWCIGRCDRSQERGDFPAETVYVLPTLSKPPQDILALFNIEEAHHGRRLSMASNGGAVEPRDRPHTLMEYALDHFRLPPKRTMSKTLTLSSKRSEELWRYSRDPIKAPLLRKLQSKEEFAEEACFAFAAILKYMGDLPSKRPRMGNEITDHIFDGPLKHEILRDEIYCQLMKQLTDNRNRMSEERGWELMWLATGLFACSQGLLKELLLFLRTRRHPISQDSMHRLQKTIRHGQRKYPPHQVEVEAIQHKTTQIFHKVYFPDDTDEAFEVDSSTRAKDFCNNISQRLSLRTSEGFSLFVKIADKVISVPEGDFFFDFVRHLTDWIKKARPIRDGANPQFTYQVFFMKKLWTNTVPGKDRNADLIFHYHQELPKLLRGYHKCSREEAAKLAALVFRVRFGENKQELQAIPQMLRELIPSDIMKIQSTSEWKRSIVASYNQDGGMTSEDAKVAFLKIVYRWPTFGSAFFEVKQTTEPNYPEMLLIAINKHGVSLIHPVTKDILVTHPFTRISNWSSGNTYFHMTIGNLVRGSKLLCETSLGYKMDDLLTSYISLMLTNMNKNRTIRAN

Tests used:
Assay in all cases: affinity purification with mass spectrometry; HA3x-tagged baits stably expressed in Drosophila S2 cells; large-scale affinity purification on α-HA resin, mass spectrometric analysis; minimum score of two unique peptides
HA3x-tagged DIAP1 = biological target: T1, HA3x-tagged DIAP1 (UniProt Q24306)
T1 sequence: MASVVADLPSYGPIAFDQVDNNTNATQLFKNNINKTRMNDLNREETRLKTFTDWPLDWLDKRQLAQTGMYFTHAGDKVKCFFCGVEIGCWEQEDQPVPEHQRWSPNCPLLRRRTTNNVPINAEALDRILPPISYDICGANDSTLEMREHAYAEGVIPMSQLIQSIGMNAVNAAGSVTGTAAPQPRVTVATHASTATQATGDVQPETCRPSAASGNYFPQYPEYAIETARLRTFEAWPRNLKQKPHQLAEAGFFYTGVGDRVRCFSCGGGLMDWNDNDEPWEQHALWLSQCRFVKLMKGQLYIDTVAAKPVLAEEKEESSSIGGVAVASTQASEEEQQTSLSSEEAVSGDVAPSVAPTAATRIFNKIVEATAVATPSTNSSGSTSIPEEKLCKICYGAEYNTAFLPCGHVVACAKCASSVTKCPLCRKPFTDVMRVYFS

HA3x-tagged DIAP2 = biological target: T2, HA3x-tagged DIAP2 (UniProt Q24307)
T2 sequence: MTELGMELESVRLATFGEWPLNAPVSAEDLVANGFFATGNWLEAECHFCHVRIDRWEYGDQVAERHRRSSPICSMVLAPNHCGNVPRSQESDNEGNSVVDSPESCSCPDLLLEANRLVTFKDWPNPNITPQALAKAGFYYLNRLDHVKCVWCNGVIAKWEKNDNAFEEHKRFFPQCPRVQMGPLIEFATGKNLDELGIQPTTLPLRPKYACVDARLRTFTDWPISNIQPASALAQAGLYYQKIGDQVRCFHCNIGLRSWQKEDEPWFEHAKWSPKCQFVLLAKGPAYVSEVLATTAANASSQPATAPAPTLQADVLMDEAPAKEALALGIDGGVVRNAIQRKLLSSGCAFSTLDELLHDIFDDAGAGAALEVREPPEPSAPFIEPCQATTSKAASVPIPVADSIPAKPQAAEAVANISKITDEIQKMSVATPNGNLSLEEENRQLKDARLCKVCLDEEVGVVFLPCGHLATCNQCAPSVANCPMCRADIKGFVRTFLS

HA3x-tagged RELISH = biological target: T3, HA3x-tagged RELISH (UniProt Q94527)
T3 sequence: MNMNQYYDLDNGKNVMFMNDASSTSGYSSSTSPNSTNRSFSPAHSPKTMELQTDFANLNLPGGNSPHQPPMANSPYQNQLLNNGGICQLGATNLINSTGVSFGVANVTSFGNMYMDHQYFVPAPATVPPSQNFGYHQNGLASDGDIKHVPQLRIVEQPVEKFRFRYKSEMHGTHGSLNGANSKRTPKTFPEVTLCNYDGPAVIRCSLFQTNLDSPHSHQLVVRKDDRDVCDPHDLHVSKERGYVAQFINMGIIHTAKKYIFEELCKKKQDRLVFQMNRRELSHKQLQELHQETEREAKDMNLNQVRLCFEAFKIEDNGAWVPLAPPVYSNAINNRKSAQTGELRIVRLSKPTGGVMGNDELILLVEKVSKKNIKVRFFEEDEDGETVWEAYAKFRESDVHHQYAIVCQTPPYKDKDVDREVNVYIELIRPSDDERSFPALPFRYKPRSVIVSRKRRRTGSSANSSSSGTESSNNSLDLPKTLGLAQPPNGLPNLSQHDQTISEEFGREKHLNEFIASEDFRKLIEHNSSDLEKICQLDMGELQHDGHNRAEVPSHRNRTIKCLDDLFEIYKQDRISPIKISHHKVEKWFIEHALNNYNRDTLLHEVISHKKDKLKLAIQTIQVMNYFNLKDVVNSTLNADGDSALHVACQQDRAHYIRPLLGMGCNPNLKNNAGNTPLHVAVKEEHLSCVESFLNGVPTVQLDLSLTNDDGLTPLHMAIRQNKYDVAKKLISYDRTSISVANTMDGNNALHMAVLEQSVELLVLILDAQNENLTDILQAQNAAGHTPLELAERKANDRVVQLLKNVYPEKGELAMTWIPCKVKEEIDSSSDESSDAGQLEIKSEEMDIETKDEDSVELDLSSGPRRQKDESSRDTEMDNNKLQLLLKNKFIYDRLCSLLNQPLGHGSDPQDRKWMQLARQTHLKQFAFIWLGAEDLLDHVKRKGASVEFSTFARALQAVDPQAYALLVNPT

HA3x-tagged dTAK1 = biological target: T4, HA3x-tagged dTAK1 (UniProt Q9V3Q6)
T4 sequence: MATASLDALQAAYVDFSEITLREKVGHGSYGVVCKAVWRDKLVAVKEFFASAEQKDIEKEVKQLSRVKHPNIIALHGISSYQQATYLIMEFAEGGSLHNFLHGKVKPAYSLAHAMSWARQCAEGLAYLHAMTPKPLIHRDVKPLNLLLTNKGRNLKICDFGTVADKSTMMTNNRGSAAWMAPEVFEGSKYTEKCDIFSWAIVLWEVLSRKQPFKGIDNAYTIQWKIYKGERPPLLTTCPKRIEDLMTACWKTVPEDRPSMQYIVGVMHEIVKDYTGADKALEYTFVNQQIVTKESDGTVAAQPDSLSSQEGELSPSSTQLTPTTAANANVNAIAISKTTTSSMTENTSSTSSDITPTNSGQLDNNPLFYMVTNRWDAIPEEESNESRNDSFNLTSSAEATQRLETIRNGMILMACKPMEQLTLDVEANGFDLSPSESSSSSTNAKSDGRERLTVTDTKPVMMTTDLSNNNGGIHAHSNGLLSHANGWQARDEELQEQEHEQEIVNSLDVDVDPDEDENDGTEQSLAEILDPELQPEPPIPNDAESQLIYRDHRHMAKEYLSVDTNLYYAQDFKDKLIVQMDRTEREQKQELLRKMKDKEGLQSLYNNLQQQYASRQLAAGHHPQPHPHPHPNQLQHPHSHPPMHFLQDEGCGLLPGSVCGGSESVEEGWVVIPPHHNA

Measured: binding

CRINKLED (CK), endogenous in S2 cells (from UniProt Q9V3Z6 1-2167)
no binding: all assays above
